Measurements taken from ChEMBL document CHEMBL3632574, “Synthesis and evaluation of antibacterial activity of (R)-2-methylheptyl isonicotinate, a putative naturally occurring bioactive agent” (2015).

Test system: Escherichia coli
Test: Antibacterial activity against Escherichia coli after 48 hrs
Format: functional

MIC: < 10 µg/mL
SMILES: CC1(C)S[C@@H]2[C@H](NC(=O)[C@H](N)c3ccccc3)C(=O)N2[C@H]1C(=O)O [AMPICILLIN]
